The list shows a part of the results. Single values of this set are uncertain.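 Many melting curves are irregular; where none melted, Tm was taken as 64 °C.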
Compound: CCc1cnccc1C(=O)Nc1cc2c(cc1F)NC(=O)CC2
Test: melting temperature shift (DMSO Tm minus MBE1-treated Tm) in cellular thermal proteome profiling; higher = less thermal stabilization by MBE1 (negative = stabilized by MBE1)
Details: A375

The chains behind the UniProt entries cited, without tags or fusion partners. Where a name states a change or a piece, a line headed by the entry shows the natural chain unless it says otherwise.
UniProt O14949: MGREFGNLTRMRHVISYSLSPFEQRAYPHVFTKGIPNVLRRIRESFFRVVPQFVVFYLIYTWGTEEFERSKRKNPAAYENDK
UniProt O43292: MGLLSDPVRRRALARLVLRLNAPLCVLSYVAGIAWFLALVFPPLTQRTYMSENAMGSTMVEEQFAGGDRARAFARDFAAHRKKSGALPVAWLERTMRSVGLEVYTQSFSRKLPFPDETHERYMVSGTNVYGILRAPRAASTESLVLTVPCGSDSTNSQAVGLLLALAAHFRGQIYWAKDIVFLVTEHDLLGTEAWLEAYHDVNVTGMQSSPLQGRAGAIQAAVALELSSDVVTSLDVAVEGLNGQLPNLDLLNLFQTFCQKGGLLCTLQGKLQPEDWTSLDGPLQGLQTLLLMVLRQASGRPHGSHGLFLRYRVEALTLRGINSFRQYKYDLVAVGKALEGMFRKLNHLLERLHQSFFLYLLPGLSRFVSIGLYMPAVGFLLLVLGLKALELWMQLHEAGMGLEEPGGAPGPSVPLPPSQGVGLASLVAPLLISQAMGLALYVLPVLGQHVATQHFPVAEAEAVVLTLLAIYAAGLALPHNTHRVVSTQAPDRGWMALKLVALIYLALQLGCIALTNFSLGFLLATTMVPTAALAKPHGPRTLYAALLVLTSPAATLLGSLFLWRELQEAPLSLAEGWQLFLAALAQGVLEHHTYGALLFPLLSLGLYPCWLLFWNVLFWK
UniProt O00461: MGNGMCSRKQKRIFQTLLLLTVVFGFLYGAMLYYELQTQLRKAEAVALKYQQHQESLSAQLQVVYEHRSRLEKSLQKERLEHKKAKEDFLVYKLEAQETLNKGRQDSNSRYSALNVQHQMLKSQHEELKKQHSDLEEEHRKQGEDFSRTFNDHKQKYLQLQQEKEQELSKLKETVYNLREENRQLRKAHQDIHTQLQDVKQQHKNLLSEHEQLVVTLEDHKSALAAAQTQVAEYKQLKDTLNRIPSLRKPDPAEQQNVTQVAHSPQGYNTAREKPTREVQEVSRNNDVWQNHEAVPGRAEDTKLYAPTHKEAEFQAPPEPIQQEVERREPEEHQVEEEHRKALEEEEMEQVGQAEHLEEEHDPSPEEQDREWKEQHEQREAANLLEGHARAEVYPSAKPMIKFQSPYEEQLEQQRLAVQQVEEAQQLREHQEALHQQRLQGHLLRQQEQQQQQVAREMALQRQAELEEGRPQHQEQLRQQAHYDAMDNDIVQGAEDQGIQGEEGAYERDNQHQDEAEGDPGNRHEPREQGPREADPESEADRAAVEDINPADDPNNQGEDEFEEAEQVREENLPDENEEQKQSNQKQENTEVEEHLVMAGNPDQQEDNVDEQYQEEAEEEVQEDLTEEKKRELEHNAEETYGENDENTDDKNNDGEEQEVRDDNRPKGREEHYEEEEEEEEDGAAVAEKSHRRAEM
UniProt O14787: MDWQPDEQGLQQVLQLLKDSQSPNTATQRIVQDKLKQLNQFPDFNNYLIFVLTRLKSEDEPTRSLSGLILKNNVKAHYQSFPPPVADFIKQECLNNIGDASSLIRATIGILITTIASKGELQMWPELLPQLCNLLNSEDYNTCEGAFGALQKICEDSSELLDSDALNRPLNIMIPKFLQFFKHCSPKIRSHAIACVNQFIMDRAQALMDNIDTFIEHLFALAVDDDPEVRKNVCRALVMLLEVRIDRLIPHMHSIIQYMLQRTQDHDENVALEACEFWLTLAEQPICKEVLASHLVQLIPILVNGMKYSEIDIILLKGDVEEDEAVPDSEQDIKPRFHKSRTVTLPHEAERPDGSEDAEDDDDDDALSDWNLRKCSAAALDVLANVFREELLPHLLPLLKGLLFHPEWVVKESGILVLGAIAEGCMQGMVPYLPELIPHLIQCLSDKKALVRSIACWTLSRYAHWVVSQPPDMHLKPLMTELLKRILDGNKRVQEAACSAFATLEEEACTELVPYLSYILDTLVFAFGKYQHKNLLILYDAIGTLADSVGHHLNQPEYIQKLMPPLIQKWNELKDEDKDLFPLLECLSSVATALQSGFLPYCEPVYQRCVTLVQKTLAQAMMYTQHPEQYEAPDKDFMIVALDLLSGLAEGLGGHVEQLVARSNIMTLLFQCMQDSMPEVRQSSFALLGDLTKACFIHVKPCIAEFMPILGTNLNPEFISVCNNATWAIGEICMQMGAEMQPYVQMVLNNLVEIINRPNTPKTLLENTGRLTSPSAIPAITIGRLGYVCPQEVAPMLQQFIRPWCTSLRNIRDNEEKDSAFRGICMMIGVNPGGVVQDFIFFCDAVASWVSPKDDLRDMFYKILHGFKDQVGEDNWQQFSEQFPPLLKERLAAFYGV
UniProt O14732: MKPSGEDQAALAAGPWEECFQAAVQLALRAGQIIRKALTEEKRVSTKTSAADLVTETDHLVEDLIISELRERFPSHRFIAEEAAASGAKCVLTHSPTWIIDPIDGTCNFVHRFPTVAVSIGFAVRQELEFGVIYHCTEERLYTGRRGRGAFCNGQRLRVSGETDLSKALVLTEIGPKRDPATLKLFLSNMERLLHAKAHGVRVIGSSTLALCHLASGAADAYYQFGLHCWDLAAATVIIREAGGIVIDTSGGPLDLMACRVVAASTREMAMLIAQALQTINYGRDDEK
UniProt O15381: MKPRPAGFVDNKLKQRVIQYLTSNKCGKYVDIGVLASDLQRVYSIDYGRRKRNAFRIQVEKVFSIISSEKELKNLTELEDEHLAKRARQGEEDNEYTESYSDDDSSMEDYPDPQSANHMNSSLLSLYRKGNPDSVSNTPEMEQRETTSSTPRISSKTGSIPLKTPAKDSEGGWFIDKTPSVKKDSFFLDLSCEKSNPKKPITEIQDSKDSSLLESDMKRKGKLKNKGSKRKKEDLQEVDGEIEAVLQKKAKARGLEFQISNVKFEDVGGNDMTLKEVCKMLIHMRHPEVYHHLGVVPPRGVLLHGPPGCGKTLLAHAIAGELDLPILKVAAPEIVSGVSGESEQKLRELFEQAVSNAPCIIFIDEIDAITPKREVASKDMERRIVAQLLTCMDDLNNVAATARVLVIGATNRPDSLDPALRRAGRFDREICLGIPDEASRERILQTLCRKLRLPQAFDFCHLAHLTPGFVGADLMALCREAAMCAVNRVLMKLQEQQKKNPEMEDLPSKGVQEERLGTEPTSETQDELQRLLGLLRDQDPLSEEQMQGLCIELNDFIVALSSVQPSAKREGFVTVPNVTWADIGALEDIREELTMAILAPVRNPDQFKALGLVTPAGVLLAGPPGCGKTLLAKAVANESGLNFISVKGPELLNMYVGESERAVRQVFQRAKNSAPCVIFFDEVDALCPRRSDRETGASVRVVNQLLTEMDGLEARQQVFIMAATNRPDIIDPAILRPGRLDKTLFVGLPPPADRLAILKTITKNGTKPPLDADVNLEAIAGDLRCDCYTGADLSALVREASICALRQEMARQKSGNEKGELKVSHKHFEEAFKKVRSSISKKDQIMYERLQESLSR
UniProt O15327: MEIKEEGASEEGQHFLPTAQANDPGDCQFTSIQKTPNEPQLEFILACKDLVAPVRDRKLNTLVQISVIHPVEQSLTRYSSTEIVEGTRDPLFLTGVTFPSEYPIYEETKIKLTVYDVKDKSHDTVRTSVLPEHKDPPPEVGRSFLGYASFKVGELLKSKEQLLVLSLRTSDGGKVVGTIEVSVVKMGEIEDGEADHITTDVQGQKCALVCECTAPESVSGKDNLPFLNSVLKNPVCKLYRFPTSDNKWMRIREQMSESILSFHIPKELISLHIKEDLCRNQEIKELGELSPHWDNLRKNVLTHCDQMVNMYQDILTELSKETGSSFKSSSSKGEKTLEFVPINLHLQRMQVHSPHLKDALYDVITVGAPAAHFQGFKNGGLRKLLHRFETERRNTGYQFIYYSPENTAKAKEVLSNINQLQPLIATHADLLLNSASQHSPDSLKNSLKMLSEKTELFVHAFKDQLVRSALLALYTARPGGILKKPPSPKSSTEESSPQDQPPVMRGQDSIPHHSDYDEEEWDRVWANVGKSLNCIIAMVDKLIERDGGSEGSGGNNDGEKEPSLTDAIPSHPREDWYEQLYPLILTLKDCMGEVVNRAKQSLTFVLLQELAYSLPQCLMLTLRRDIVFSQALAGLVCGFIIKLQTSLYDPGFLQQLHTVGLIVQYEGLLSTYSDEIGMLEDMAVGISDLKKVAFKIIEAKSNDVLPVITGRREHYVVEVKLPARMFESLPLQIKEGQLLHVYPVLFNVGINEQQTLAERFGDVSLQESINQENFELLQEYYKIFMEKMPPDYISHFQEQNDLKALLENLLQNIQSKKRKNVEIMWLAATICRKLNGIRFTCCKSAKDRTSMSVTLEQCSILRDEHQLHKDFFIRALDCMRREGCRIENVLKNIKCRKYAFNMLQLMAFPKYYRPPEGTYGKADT
UniProt O15226: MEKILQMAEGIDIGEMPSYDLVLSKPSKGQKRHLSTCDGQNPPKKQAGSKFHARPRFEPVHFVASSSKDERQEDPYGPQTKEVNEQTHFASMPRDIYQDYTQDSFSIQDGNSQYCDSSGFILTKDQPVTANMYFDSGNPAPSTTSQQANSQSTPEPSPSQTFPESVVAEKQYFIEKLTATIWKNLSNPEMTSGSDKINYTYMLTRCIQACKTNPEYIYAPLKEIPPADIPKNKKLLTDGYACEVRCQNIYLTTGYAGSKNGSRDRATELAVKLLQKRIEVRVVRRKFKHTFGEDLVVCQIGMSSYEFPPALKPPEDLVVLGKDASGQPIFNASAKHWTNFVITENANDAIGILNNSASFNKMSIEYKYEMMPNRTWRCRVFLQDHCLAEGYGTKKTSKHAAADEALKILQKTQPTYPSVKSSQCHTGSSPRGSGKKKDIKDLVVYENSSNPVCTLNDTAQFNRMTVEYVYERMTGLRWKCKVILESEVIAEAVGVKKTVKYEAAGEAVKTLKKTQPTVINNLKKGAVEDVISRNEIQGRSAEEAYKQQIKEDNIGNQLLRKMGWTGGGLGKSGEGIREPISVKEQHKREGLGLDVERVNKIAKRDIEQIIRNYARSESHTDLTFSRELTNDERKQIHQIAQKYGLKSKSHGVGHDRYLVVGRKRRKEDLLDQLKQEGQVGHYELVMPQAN
UniProt O00213: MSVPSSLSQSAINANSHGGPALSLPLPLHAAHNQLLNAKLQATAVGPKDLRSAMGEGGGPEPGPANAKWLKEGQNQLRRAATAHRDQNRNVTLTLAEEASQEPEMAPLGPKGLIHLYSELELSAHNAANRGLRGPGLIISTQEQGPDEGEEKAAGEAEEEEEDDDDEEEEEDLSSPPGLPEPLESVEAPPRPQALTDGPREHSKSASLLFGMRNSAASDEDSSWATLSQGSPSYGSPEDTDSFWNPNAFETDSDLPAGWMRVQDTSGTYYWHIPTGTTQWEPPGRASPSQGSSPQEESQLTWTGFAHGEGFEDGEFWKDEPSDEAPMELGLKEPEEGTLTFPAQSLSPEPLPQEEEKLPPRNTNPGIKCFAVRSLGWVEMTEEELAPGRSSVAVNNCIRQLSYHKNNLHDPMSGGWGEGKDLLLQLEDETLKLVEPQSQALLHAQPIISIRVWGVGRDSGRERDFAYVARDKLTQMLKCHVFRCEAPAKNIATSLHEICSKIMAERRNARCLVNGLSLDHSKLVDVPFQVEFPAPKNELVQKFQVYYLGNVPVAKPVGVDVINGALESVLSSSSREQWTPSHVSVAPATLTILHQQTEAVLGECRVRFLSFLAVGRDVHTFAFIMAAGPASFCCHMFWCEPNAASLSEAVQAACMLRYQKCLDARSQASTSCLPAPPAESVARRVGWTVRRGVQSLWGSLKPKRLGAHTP
UniProt O14828: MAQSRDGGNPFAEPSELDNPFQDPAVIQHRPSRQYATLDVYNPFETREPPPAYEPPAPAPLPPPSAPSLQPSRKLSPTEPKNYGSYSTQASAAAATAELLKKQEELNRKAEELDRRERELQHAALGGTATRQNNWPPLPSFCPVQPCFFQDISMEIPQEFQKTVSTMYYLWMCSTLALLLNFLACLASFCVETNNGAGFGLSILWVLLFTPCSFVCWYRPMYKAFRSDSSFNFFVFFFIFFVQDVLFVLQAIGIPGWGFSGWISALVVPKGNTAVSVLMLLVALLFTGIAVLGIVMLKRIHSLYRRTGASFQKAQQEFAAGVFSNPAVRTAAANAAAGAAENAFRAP
UniProt O43298: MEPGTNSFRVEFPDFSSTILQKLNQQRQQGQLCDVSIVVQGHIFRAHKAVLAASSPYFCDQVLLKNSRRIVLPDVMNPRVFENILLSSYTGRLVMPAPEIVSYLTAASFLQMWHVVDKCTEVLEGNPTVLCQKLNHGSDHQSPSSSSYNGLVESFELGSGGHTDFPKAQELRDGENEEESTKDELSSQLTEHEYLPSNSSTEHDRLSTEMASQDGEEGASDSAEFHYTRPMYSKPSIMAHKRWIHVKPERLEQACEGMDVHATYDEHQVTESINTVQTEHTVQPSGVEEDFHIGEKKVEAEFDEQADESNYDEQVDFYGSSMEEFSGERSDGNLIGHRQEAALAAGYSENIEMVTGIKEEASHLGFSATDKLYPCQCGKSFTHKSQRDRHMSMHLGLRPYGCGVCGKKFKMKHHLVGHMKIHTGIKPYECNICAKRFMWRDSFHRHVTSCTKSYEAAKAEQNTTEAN

Row | Target | melting temperature shift (MBE1 concentration: 100 nM) [°C] | melting temperature shift (MBE1 concentration: 1 uM) [°C]
1 | ZW10 (UniProt O43264) | -0.814 | -0.329
2 | UQCRQ (UniProt O14949) | -3.58 | -3.61
3 | ARPC2 (UniProt O15144) | -0.644 | -0.0472
4 | SUPT5H (UniProt O00267) | 0.586 | -0.0427
5 | GPAA1 (UniProt O43292) | -0.545 | 0.818
6 | GOLIM4 (UniProt O00461) | -0.543 | -0.0872
7 | CD3EAP (UniProt O15446) | -12.4 | -6.22
8 | TNPO2 (UniProt O14787) | -0.793 | -0.296
9 | ANKRD28 (UniProt O15084) | 1.83 | 0.556
10 | IMPA2 (UniProt O14732) | -3.98 | -0.425
11 | NOP56 (UniProt O00567) | -0.771 | -0.369
12 | NVL (UniProt O15381) | -1.42 | -0.186
13 | PDXK (UniProt O00764) | 0.555 | 1.65
14 | TXNDC9 (UniProt O14530) | -0.208 | 0.0402
15 | TOR1B (UniProt O14657) | -1.37 | 0.597
16 | POLR1C (UniProt O15160) | -1.17 | -0.0518
17 | STK25 (UniProt O00506) | 0.788 | -1.02

Row | Target | melting temperature shift (MBE1 concentration: 100 nM) [°C] | melting temperature shift (MBE1 concentration: 1 uM) [°C]
18 | OGT (UniProt O15294) | 0 | -0.415
19 | HDAC3 (UniProt O15379) | -1.07 | -0.231
20 | PIK3CD (UniProt O00329) | -1.19 | 3.33
21 | UniProt O15554 | -3.23 | -2.03
22 | UniProt O15327 | 0.146 | -0.136
23 | NKRF (UniProt O15226) | 0.0961 | -0.115
24 | P0CG08 (UniProt B7ZAQ6) | -0.523 | -0.159
25 | UniProt O00214 | 0.293 | -1.56
26 | UniProt O15254 | -1.25 | 0.899
27 | BTAF1 (UniProt O14981) | 0.458 | -0.202
28 | ASAP2 (UniProt O43150) | 1.37 | 0.837
29 | UniProt O00213 | -1.16 | -0.569
30 | SCAMP3 (UniProt O14828) | -2.8 | -0.374
31 | KMT2D (UniProt O14686) | 1.28 | -0.47
32 | UniProt O43298 | -3.36 | -1.04
33 | BACH1 (UniProt O14867) | -2.64 | -0.727
34 | NDUFS4 (UniProt O43181) | -1.62 | 2.43

Record cards (already shown). Values in the order: melting temperature shift (MBE1 concentration: 100 nM) [°C]	melting temperature shift (MBE1 concentration: 1 uM) [°C]
PIK3CD (UniProt O00329) in the list: -1.19	3.33
NKRF (UniProt O15226) in the list: 0.0961	-0.115

Reference: the supplement of paper PMC12595434, “Development of retinoid nuclear receptor pathway antagonists through targeting aldehyde dehydrogenase 1A3” (iScience, 2025)
